Experimental findings from patent US3981982A, “Radioimmunoassay for determining the digoxin content of a sample” (Abbott Laboratories, priority 1974, dated 1976) are described below.

The subject of this data set is digoxin antibody. Description: Precision of digoxin determination, five laboratories (Table II). More on the design: species or system rabbits.

Structures are written as SMILES.

`C[C@H]1O[C@@H](O[C@H]2[C@@H](O)C[C@H](O[C@H]3[C@@H](O)C[C@H](O[C@H]4CC[C@@]5(C)[C@H](CC[C@@H]6[C@@H]5C[C@@H](O)[C@]5(C)[C@@H](C7=CC(=O)OC7)CC[C@]65O)C4)O[C@@H]3C)O[C@@H]2C)C[C@H](O)[C@@H]1O` [digoxin]: the “Mean” value (High Sample, Combined Results, 43 determinations) amounted to 3.71 ng/mL; the “Mean” value (High Sample, Laboratory 1, 19 determinations) was 3.70 ng/mL; the “Mean” value (High Sample, Laboratory 2, 6 determinations) came out at 3.70 ng/mL; the “Mean” value (High Sample, Laboratory 3, 5 determinations) stood at 3.70 ng/mL; the “Mean” value (High Sample, Laboratory 4, 6 determinations) amounted to 3.40 ng/mL; the “Mean” value (High Sample, Laboratory 5, 7 determinations) came to 3.90 ng/mL. Besides, the “Mean” value reads like this: (Low Sample, Combined Results, 43 determinations) 0.61 ng/mL; (Low Sample, Laboratory 1, 19 determinations) 0.62 ng/mL; (Low Sample, Laboratory 2, 6 determinations) 0.63 ng/mL; (Low Sample, Laboratory 3, 5 determinations) 0.64 ng/mL; (Low Sample, Laboratory 4, 6 determinations) 0.60 ng/mL; (Low Sample, Laboratory 5, 7 determinations) 0.57 ng/mL. For the same molecule, the “Mean” value amounted to 1.97 ng/mL (Medium Sample, Combined Results, 43 determinations); 2.00 ng/mL (Medium Sample, Laboratory 1, 19 determinations); 1.90 ng/mL (Medium Sample, Laboratory 2, 6 determinations); 2.00 ng/mL (Medium Sample, Laboratory 3, 5 determinations); 1.90 ng/mL (Medium Sample, Laboratory 4, 6 determinations); 2.00 ng/mL (Medium Sample, Laboratory 5, 7 determinations).
